# Data taken from the supplement of paper PMC9135407.
# Counter-ions that a name gives are not always drawn. ± gives the standard deviation of the averaged measurements. The list shows a part of the results. Baselines shift from plate to plate; read single values as rough.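 Primary human stellate myofibroblasts activated in culture; inactivation shown by regained lipid droplets. Readout: fraction of Hoechst-counted cells exceeding a per-plate Bodipy threshold, duplicate wells, each plate with DMSO negative and nortriptyline positive controls. Hits: control-normalized score beyond the plate's top-tenth-percentile nortriptyline wells, or among its three best wells. Final well concentrations unstated.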
# Tested on: primary human hepatic stellate cells (donor 1)
# Experiment: percent Bodipy-positive cells; higher = more lipid droplet accumulation
# Conditions: 48 h
# Method: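 Primary lipid accumulation screen in primary human hepatic stellate cell myofibroblasts (donor 1, passage 8) in 384-well plates. 100 nL of library compound was pin-transferred into 30 µL medium in duplicate, and cells were treated for 48 h. The 'Scaled' score combines distance from plate baseline, toxicity and reproducibility penalties, and is normalised to nortriptyline (positive) and DMSO (negative) controls on each plate. A hit is defined as scaled >0.85 or among the top 3 wells per plate.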
# [1] = library stock concentration: 1 mM
# [2] = library stock concentration: 10 mM
# [3] = library stock concentration: 3.33 mM
structure (smiles),measurement,setting,value
COc1cc2c3cc1Oc1cc(ccc1O)C[C@@H]1c4c(cc(OC)c(O)c4Oc4ccc(cc4)C[C@@H]3N(C)CC2)CC[N+]1(C)C [Tubocurarine chloride],percent Bodipy-positive cells,library stock concentration: 3.1 mM,9.41 ± 1.8%
CC\C=C/C=C/C=C/C=C\CCCCCCCC(=O)O [cis-Parinaric Acid],percent Bodipy-positive cells,[1],11.5 ± 0.18%
COc1cc(C(=O)NCCCCCC(=O)O)cc(OC)c1OC [Capobenic acid],percent Bodipy-positive cells,library stock concentration: 6.1 mM,12.7 ± 3%
c1ccc(-c2[nH]ncc2-c2ccnc3ccccc23)nc1,percent Bodipy-positive cells,[1],8.04 ± 1.8%
same,percent Bodipy-positive cells,[2],6.92 ± 3.2%
CC1=C(C(=O)O)N2C(=O)[C@@H](NC(=O)[C@H](N)C3=CCC=CC3)[C@H]2SC1 [Cephradine],percent Bodipy-positive cells,library stock concentration: 5.7 mM,2.07 ± 1.3%
N[C@@H](CCC(=O)N[C@@H](CS)C(=O)NCC(=O)O)C(=O)O [Glutathione],percent Bodipy-positive cells,[2],31.7 ± 20%
CCC1(c2ccccc2)NC(=O)N(C)C1=O (configuration not stated) [Mephenytoin],percent Bodipy-positive cells,,6.54 ± 0.93%
same,percent Bodipy-positive cells,library stock concentration: 9.2 mM,11.9 ± 5.5%
C=CC(=O)Nc1cc(Nc2nccc(-c3cn(C)c4ccccc34)n2)c(OC)cc1N(C)CCN(C)C,percent Bodipy-positive cells,[2],98.8 ± 1.7%
C#Cc1cccc(Nc2ncnc3cc4c(cc23)OCCOCCOCCO4)c1 [Icotinib],percent Bodipy-positive cells,[3],14.5 ± 11%
same,percent Bodipy-positive cells,[2],30.8 ± 11%
Cc1ccc(NCCCc2ccccc2)c(N)c1,percent Bodipy-positive cells,[3],27.6 ± 12%
same,percent Bodipy-positive cells,[2],38.1 ± 4.5%
CCc1c(C)[nH]c2c1C(=O)C(CN1CCOCC1)CC2 (configuration not stated) [Molindone hydrochloride],percent Bodipy-positive cells,,10.6 ± 3.8%
same,percent Bodipy-positive cells,[2],32.2 ± 1.3%
CCc1c(C)[nH]c2c1C(=O)C(CN1CCOCC1)CC2 (configuration not stated) [Moban],percent Bodipy-positive cells,[2],27.6 ± 12%
NC(=O)CNCCC(c1ccccc1)c1ccccc1 [N20C hydrochloride],percent Bodipy-positive cells,[2],34 ± 4.2%
"NC(=O)CNCCC(c1ccccc1)c1ccccc1 [N-(3,3-Diphenylpropyl)glycinamide]",percent Bodipy-positive cells,[2],66.3 ± 17%
CCCCC(CC)CCC(CC(C)C)OS(=O)(=O)O (configuration not stated),percent Bodipy-positive cells,[2],29.9 ± 2.6%
Cc1cc(C)c(-c2csc(NC(=O)c3ccccc3)n2)c(C)c1,percent Bodipy-positive cells,[3],30.7 ± 4.3%
same,percent Bodipy-positive cells,[2],30.2 ± 2.5%
O=C(O)COCCN1CCN(C(c2ccccc2)c2ccc(Cl)cc2)CC1 (configuration not stated) [Cetirizine dihydrochloride],percent Bodipy-positive cells,,35.5 ± 9.1%
O=C(O)COCCN1CCN(C(c2ccccc2)c2ccc(Cl)cc2)CC1 (configuration not stated) [Cetirizine],percent Bodipy-positive cells,[2],37.2 ± 15%
O=C(O)COCCN1CCN(C(c2ccccc2)c2ccc(Cl)cc2)CC1 (configuration not stated) [Cetirizine DiHCl],percent Bodipy-positive cells,[3],10.3 ± 2.6%
same,percent Bodipy-positive cells,[2],14.1 ± 1.8%
O=C(O)COCCN1CCN(C(c2ccccc2)c2ccc(Cl)cc2)CC1 (configuration not stated) [Cetirizine hydrochloride],percent Bodipy-positive cells,[2],42.4 ± 8%
N[C@@H]1CONC1=O [D-cycloserine],percent Bodipy-positive cells,,8.27 ± 3.8%
N[C@@H]1CONC1=O [D-Cycloserine],percent Bodipy-positive cells,[2],53.8 ± 7.8%
N[C@@H]1CONC1=O [Cycloserine],percent Bodipy-positive cells,[2],24.3 ± 10%
Cn1cc(-c2cnn3c(N)c(Br)c([C@@H]4CCCNC4)nc23)cn1,percent Bodipy-positive cells,[3],6.26 ± 4.1%
same,percent Bodipy-positive cells,[2],66.1 ± 1%

# 2 records drawn at random from those above:
structure (smiles),measurement,setting,value
C#Cc1cccc(Nc2ncnc3cc4c(cc23)OCCOCCOCCO4)c1 [Icotinib],percent Bodipy-positive cells,[3],14.5 ± 11%
same,percent Bodipy-positive cells,[2],30.8 ± 11%
